Assay results: PMC5824958

T1: BRI2 (integral membrane protein 2B) (rat (endogenous in brain)) (UniProt Q5XIE8)
T1 sequence: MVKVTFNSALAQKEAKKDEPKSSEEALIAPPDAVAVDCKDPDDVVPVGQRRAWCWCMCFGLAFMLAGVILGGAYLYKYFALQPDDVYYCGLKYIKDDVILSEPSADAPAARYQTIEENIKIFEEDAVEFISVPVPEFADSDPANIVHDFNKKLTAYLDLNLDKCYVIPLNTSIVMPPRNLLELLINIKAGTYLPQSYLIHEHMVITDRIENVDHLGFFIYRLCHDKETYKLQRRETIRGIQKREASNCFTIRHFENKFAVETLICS

B1: Vesicular inhibitory amino acid transporter (protein, UniProt O35458 1-525)
chain: MATLLRSKLTNVATSVSNKSQAKVSGMFARMGFQAATDEEAVGFAHCDDLDFEHRQGLQMDILKSEGEPCGDEGAEPPVEGDIHYQRGGAPLPPSGSKDQAVGAGGEFGGHDKPKITAWEAGWNVTNAIQGMFVLGLPYAILHGGYLGLFLIIFAAVVCCYTGKILIACLYEENEDGEVVRVRDSYVAIANACCAPRFPTLGGRVVNVAQIIELVMTCILYVVVSGNLMYNSFPGLPVSQKSWSIIATAVLLPCAFLKNLKAVSKFSLLCTLAHFVINILVIAYCLSRARDWAWEKVKFYIDVKKFPISIGIIVFSYTSQIFLPSLEGNMQQPSEFHCMMNWTHIAACVLKGLFALVAYLTWADETKEVITDNLPGSIRAVVNIFLVAKALLSYPLPFFAAVEVLEKSLFQEGSRAFFPACYGGDGRLKSWGLTLRCALVVFTLLMAIYVPHFALLMGLTGSLTGAGLCFLLPSLFHLRLLWRKLLWHQVFFDVAIFVIGGICSVSGFVHSLEGLIEAYRTNAED
B2: Vesicular glutamate transporter 1 (protein, UniProt Q62634 1-560)
chain: MEFRQEEFRKLAGRALGRLHRLLEKRQEGAETLELSADGRPVTTHTRDPPVVDCTCFGLPRRYIIAIMSGLGFCISFGIRCNLGVAIVSMVNNSTTHRGGHVVVQKAQFNWDPETVGLIHGSFFWGYIVTQIPGGFICQKFAANRVFGFAIVATSTLNMLIPSAARVHYGCVIFVRILQGLVEGVTYPACHGIWSKWAPPLERSRLATTAFCGSYAGAVVAMPLAGVLVQYSGWSSVFYVYGSFGIFWYLFWLLVSYESPALHPSISEEERKYIEDAIGESAKLMNPVTKFNTPWRRFFTSMPVYAIIVANFCRSWTFYLLLISQPAYFEEVFGFEISKVGLVSALPHLVMTIIVPIGGQIADFLRSRHIMSTTNVRKLMNCGGFGMEATLLLVVGYSHSKGVAISFLVLAVGFSGFAISGFNVNHLDIAPRYASILMGISNGVGTLSGMVCPIIVGAMTKHKTREEWQYVFLIASLVHYGGVIFYGVFASGEKQPWAEPEEMSEEKCGFVGHDQLAGSDESEMEDEVEPPGAPPAPPPSYGATHSTVQPPRPPPPVRDY
B3: Cell adhesion molecule 4 (protein, UniProt Q1WIM1 21-388)
chain: PGTAQEVQTENVTVAEGGVAEITCRLHQYDGSIVVIQNPARQTLFFNGTRALKDERFQLEEFSPRRVRIRLSDARLEDEGGYFCQLYTEDTHHQIATLTVLVAPENPVVEVREQAVEGGEVELSCLVPRSRPAAVLRWYRDRKELKGVSSGQENGKVWSVASTVRFRVDRKDDGGIVICEAQNQALPSGHSKQTQYVLDVQYSPTARIHASQAVVREGDTLVLTCAVTGNPRPNQIRWNRGNESLPERAEALGETLTLPGLVSADNGTYTCEAANKHGHARALYVLVVYDPGAVVEAQTSVPYAIVGGILALLVFLIICVLVGMVWCSVRQKGSYLTHEASGLDEQGEAREAFLNGSDGHKRKEEFFI
B4: Zinc transporter 3 (protein, UniProt Q6QIX3 1-388)
chain: MEPSPASGGSETTRLVSPRDRSSAGGGLRLKSLFTEPSEPLPEGPKLEGMAFHHCHKNRVSQSGLSPERAQARRQLYAACVVCFIFMAGEVVGGYLAHSLAIMTDAAHLLADIGSMMASLFSLWLSTRPATRTMTFGWHRSETLGALASVVSLWIVTGILLYLAFLRLLHSDYHIEAGAMLLTASIAVCANMIMAFVLHQTGAPHSHGPRGAEYAPLEEGHGHPLSLGNTSVRAAFVHVLGDLLQSLGVLAASILIYFKPQYKVADPISTFLFSICALGSTAPTLRDVLLVLMEGAPRSVEFEPVRDTLLSVPGVRATHDLHLWALTLTYHVASAHLAIDSTADPEAILAEASSRLYSRFGFSSCTLQVEKYRSEMAHCLRCREPPKA
B5: 2′,3′-cyclic-nucleotide 3′-phosphodiesterase (protein, UniProt P13233 1-420)
chain: MSTSFARKSHTFLPKIFFRKMSSSGAKDKPELQFPFLQDEDTVATLHECKTLFILRGLPGSGKSTLARLIVEKYHNGTKMVSADAYKIIPGSRADFSEEYKRLDEDLAGYCRRDIRVLVLDDTNHERERLDQLFEMADQYQYQVVLVEPKTAWRLDCAQLKEKNQWQLSLDDLKKLKPGLEKDFLPLYFGWFLTKKSSETLRKAGQVFLEELGNHKAFKKELRHFISGDEPKEKLDLVSYFGKRPPGVLHCTTKFCDYGKATGAEEYAQQDVVRRSYGKAFKLSISALFVTPKTAGAQVVLNEQELQLWPSDLDKPSSSESLPPGSRAHVTLGCAADVQPVQTGLDLLEILQQVKGGSQGEEVGELPRGKLYSLGKGRWMLSLAKKMEVKAIFTGYYGKGKPVPVHGSRKGGAMQICTII
B6: Tenascin-R (protein, UniProt Q05546 32-1356)
chain: RLEVTTERVQRQTVEEEGGASSYNTSSKEQPMVFNHVYNINVPLESLCSSGLEASAEQDVSAEDDTLAEYTGQTSDHESQVTFTHKINLPKKACPCASSAQVLQELLSRIEMLEREVSVLRDQCNTNCCQESAATGQLDYVPHCSGHGNFSFESCGCICNEGWFGKNCSEPYCPLGCSSRGVCVDGQCICDSEYSGDDCSELRCPTDCSSRGLCVDGECVCEEPYTGEDCRELRCPGDCSGKGQCANGTCLCQEGYAGEDCSQRRCLNACSGRGHCQEGLCICEEGYQGPDCSAVTPPEDLRVAGISDRSIELEWDGPMAVTEYVISYQPSLGGLQLQQRVPGDWSGVTITELEPGLTYNISVYAVISNILSLPITAKVATHLSTPQGLQFKTITETTVEVQWEPFSFSFDGWEISFTPKNNEGGVIAQLPSDVTSFNQTGLKPGEEYIVNVVALKEQARGPPTSASVSTVIDGPTQILVRDVSDTVAFVEWTPPRAKVDFILLKYGLVGGEGGKTTFRLQPPLSQYSVQALRPGSRYEVSISAVRGTNESDASSTQFTTEIDAPKNLRVGSRTATSLDLEWDNSEAEAQEYKVVYSTLAGEQYHEVLVPKGIGPTTKTTLTDLVPGTEYGVGISAVMNSKQSIPATMNARTELDSPRDLMVTASSETSISLIWTKASGPIDHYRITFTPSSGISSEVTVPRDRTSYTLTDLEPGAEYIISITAERGRQQSLESTVDAFTGFRPISHLHFSHVTSSSVNITWSDPSPPADRLILNYSPRDEEEEMMEVLLDATKRHAVLMGLQPATEYIVNLVAVHGTVTSEPIVGSITTGIDPPKNITISNVTKDSLTVSWSPPVAPFDYYEYPIDHPSGRLDSSVVPNTVTEFTITRLYPASQYEISLNSVRGREESERICTLVHTAMDSPMDLIATNITPTEALLQWKAPMGEVENYVIVLTHFAMAGETILVDGVSEEFQLVDLLPRTHYTVTMYATSGPLVSGTIATNFSTLLDPPANLTASEVTRQSALISWQPPRAAIENYVLTYKSTDGSRKELIVDAEDTWIRLEGLSENTDYTVLLQAAQEATRSSLTSTIFTTGGRVFSHPQDCAQHLMNGDTLSGVYTIFLNGELSHKLQVYCDMTTDGGGWIVFQRRQNGQTDFFRKWADYRVGFGNLEDEFWLGLDNYHRITAQGRYELRVDMRDGQEAVFAYYDKFAVEDSRSLYKLRIGGYNGTAGDSLSYHQGRPFSTEDRDNDVAVTNCAMSYKGAWWYKNCHRTNLNGKYGESRHSQGINWYHWKGHEFSIPFVEMKMRPYIHRLTAGRKRRALKF
B7: Synaptotagmin-12 (protein, UniProt P97610 1-421)
chain: MAVDVTEYHLSVIKSPPGWEVGVYAAGALALLGIAAVSLWKLWTSGSFPSPSPFPNYDYRYLQQKYGEAYVEAKLKRVPPWNAQRTTTRGPPSRKGSLSIEDTFESISELGPLELMGRELDLAPYGTLRKSQSADSLNSISSVSNTFGQDFTLGQVEVSMDYDGASHTLHVAVLQGKDLLEREEATFESCFMRVSLLPDEQIVGISRIQRNAYSIFFDEKFSVPLDPTALEEKSLRFSVFGIDEDERNVSTGVVELKLSVLDLPLQPFSGWLYLQDQNKAADAVGEILLSLSYLPTAERLTVVVVKAKNLIWTNDKTTADPFVKVYLLQDGRKMSKKKTAVKRDDPNPVFNEAMIFSVPAIVLQDLSLRVTVAESSSDGRGDNVGHVIIGPGASGMGTTHWNQMLATLRRPVSMWHPVRRN
B8: CaM kinase-like vesicle-associated protein (protein, UniProt Q63092 1-504)
chain: MPFGCVTLGDKKNYNQPSEVTDRYDLGQVVKTEEFCEIFRAKDKTTGKLHTCKKFQKRDGRKVRKAAKNEIGILKMVKHPNILQLVDVFVTRKEYFIFLELATGREVFDWILDQGYYSERDTSNVVRQVLEAVAYLHSLKIVHRNLKLENLVYYNRLKNSKIVISDFHLAKLENGLIKEPCGTPEYLAPEVVGRQRYGRPVDCWAIGVIMYILLSGNPPFYEEVEEDDYENHDKNLFRKILAGDYEFDSPYWDDISQAAKDLVTRLMEVEQDQRITAEEAISHEWISGNAASDKNIKDGVCAQIEKNFARAKWKKAVRVTTLMKRLRAPEQSGTAATSDAATPGAAGGAVAAAAGGAAPASGASATVGTGGDAGCAAKSDDMASADRSATPATDGSATPATDGSVTPATDGSITPATDGSVTPATDRSATPATDGRATPATEESTVPAAQSSAAPAAKAAATPEPAVAQPDSTALEGATGQAPPSSKGEEATGCAQESQRVETS
B9: Vesicular glutamate transporter 2 (protein, UniProt Q9JI12 1-582)
chain: MESVKQRILAPGKEGIKNFAGKSLGQIYRVLEKKQDNRETIELTEDGKPLEVPEKKAPLCDCTCFGLPRRYIIAIMSGLGFCISFGIRCNLGVAIVDMVNNSTIHRGGKVIKEKAKFNWDPETVGMIHGSFFWGYIITQIPGGYIASRLAANRVFGAAILLTSTLNMLIPSAARVHYGCVIFVRILQGLVEGVTYPACHGIWSKWAPPLERSRLATTSFCGSYAGAVIAMPLAGILVQYTGWSSVFYVYGSFGMVWYMFWLLVSYESPAKHPTITDEERRYIEESIGESANLLGAMEKFKTPWRKFFTSMPVYAIIVANFCRSWTFYLLLISQPAYFEEVFGFEISKVGMLSAVPHLVMTIIVPIGGQIADFLRSKQILSTTTVRKIMNCGGFGMEATLLLVVGYSHTRGVAISFLVLAVGFSGFAISGFNVNHLDIAPRYASILMGISNGVGTLSGMVCPIIVGAMTKNKSREEWQYVFLIAALVHYGGVIFYALFASGEKQPWADPEETSEEKCGFIHEDELDEETGDITQNYINYGTTKSYGATSQENGGWPNGWEKKEEFVQESAQDAYSYKDRDDYS
B10: Tropomodulin-2 (protein, UniProt P70566 1-351)
chain: MALPFQKGLEKYKNIDEDELLGKLSEEELKQLENVLDDLDPESATLPAGFRQKDQTQKAATGPFDREHLLMYLEKEALEQKDREDFVPFTGEKKGRVFIPKEKPVETRKEEKVTLDPELEEALASASDTELYDLAAVLGVHNLLNNPKFDEETTNGQGRKGPVRNVVKGEKAKPVFEEPPNPTNVEASLQQMKANDPSLQEVNLNNIKNIPIPTLKEFAKALETNTHVRKFSLAATRSNDPVALAFAEMLKVNKTLKSLNVESNFITGAGILALVEALRENDTLTEIKIDNQRQQLGTAVEMEIAQMLEENSRILKFGYQFTKQGPRTRVAAAITKNNDLVRKKRVEGDRR

target: T1, BRI2 (integral membrane protein 2B) (rat (endogenous in brain)); test: affinity purification with mass spectrometry; mouse anti-BRI2 antibody (N-terminal region) on Dynabeads Protein G; pre-cleared rat cerebral cortex, hippocampus and cerebellum lysates (50 mM Tris-HCl pH 8.0, 120 mM NaCl, 4% CHAPS), overnight at 4 °C; co-precipitated proteins identified by nano-HPLC-MS/MS; hits absent from the two mock IPs or with a PSM ratio >= 2.0

binding | Binder
binds | B1
binds | B2
binds | B3
binds | B4
binds | B5
binds | B6
binds | B7
binds | B8
binds | B9
binds | B10

Results are given in words; binding and its absence hold for the method and conditions named. Binding seen in cells or lysates may run through a third protein. These calls come from enrichment with a bait or labelling near it, and not all partners need be listed. Sequences can lack the tags named with a protein.
